Source: the supplement of paper PMC10331698
± gives the standard deviation of the averaged measurements. Most values lie at the level of the controls, where differences are scatter.

How the values were obtained:
Experiment in all cases: level (log10 ratio to DMSO vehicle control); higher = higher biomarker level / cell amount than vehicle control
[1] = compound: C=C(C)C(=O)OCC(F)(F)C(F)(F)C(F)(F)C(F)(F)C(F)(F)C(F)(F)C(F)(F)F; conditions: in DMSO
Procedure: (§1)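 BioMAP Diversity Plus panel of 12 human primary cell co-culture systems (3C, 4H, LPS, SAg, BT, BF4T, BE3C, CASM3C, HDF3CGF, KF3CT, MyoF, Mphg). Compounds were added 1 h before stimulation and left for 24 h (MyoF 48 h; BT 72 h for soluble read-outs or 6 d for IgG). Biomarkers were read by ELISA, cytotoxicity by SRB, PBMC viability and proliferation by Alamar Blue. Each well value was divided by the mean of 8 DMSO control wells on the same plate and log10 transformed; duplicate blinded samples were tested at 4 concentrations.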

[2] = compound: C=CC(=O)OCC(F)(F)C(F)(F)C(F)(F)C(F)(F)C(F)(F)C(F)(F)C(F)(F)F [1H,1H-Perfluorooctyl acrylate]; conditions: 2200 nM; in DMSO
Procedure: as §1

[3] = compound: C=CC(F)(F)C(F)(F)C(F)(F)C(F)(F)C(F)(F)C(F)(F)C(F)(F)C(F)(F)C=C [1,8-Divinylperfluorooctane]; conditions: in DMSO
Procedure: as §1

[4] = compound: COC(=O)C(F)(F)C(F)(F)OC(F)(C(F)(F)F)C(F)(F)OC(F)=C(F)F [Methyl perfluoro(3-(1-ethenyloxypropan-2-yloxy)propanoate)]; conditions: in DMSO
Procedure: as §1

[5] = compound: CO[Si](C)(CCC(F)(F)C(F)(F)C(F)(F)C(F)(F)C(F)(F)C(F)(F)F)OC [Dimethoxymethyl((perfluorohexyl)ethyl)silane]; conditions: in DMSO
Procedure: as §1

[6] = compound: FC(F)(F)C(F)(F)C(F)(F)CC1CO1 [1H,1H-Heptafluorobutyl epoxide]; conditions: 2200 nM; in DMSO
Procedure: as §1

Heptafluorobutyl iodide = compound: FC(F)(F)C(F)(F)C(F)(F)CI [Heptafluorobutyl iodide]; conditions: 2200 nM; in DMSO
Procedure: as §1

[7] = compound: NC(=O)C(F)(F)C(F)(F)C(F)(F)C(F)F; conditions: in DMSO
Procedure: as §1

Pentafluoropropionamide = compound: NC(=O)C(F)(F)C(F)(F)F [Pentafluoropropionamide]; conditions: 2200 nM; in DMSO
Procedure: as §1

[8] = compound: NS(=O)(=O)C(F)(F)C(F)(F)C(F)(F)C(F)(F)C(F)(F)C(F)(F)C(F)(F)C(F)(F)F [Perfluorooctanesulfonamide]; conditions: in DMSO
Procedure: as §1

[9] = compound: O=C(O)C(F)(F)C(F)(F)C(F)F [4H-Perfluorobutanoic acid]; conditions: in DMSO
Procedure: as §1

[10] = compound: O=P(O)(O)CCC(F)(F)C(F)(F)C(F)(F)C(F)(F)C(F)(F)C(F)(F)F [2-(Perfluorohexyl)ethylphosphonic acid]; conditions: 2200 nM; in DMSO
Procedure: as §1

[11] = compound: O=S(=O)(F)C(F)(F)C(F)(F)C(F)(F)C(F)(F)C(F)(F)C(F)(F)C(F)(F)C(F)(F)F [Perfluorooctanesulfonyl fluoride]; conditions: 2200 nM; in DMSO
Procedure: as §1

[12] = compound: O=S(=O)(O)C(F)(F)C(F)(F)C(F)(F)C(F)(F)C(F)(F)C(F)(F)C(F)(F)C(F)(F)F [Perfluorooctanesulfonic acid]; conditions: 2200 nM; in DMSO
Procedure: as §1

[13] = compound: O=S(=O)(O)C(F)(F)C(F)(F)C(F)(F)C(F)(F)C(F)(F)C(F)(F)C(F)(F)C(F)(F)F [Potassium perfluorooctanesulfonate]; conditions: 2200 nM; in DMSO
Procedure: as §1

[14] = compound: O=S(=O)(OCC(F)(F)F)C(F)(F)C(F)(F)C(F)(F)C(F)(F)F [2,2,2-Trifluoroethyl perfluorobutanesulfonate]; conditions: 2200 nM; in DMSO
Procedure: as §1

[15] = compound: OCC(F)(F)C(F)(F)C(F)(F)C(F)(F)C(F)(F)C(F)F [1H,1H,7H-Dodecafluoro-1-heptanol]; conditions: 2200 nM; in DMSO
Procedure: as §1

[16] = compound: OCCCCC(F)(F)C(F)(F)C(F)(F)C(F)(F)F [4:4 Fluorotelomer alcohol]; conditions: 2200 nM; in DMSO
Procedure: as §1

Test System | level (log10) ([1]; 740 nM) | level (log10) ([1]; 2200 nM) | level (log10) [2] | level (log10) ([3]; 740 nM) | level (log10) ([3]; 2200 nM) | level (log10) ([4]; 740 nM) | level (log10) ([4]; 2200 nM) | level (log10) ([5]; 740 nM) | level (log10) ([5]; 2200 nM) | level (log10) [6] | level (log10) (Heptafluorobutyl iodide) | level (log10) ([7]; 2200 nM) | level (log10) ([7]; 6700 nM) | level (log10) ([7]; 20000 nM) | level (log10) ([7]; 60000 nM) | level (log10) (Pentafluoropropionamide) | level (log10) ([8]; 2200 nM) | level (log10) ([8]; 6700 nM) | level (log10) ([8]; 20000 nM) | level (log10) ([9]; 2200 nM) | level (log10) ([9]; 6700 nM) | level (log10) ([9]; 20000 nM) | level (log10) ([9]; 60000 nM) | level (log10) [10] | level (log10) [11] | level (log10) [12] | level (log10) [13] | level (log10) [14] | level (log10) [15] | level (log10) [16]
MyoF:Collagen IV | 0.005 ± 0.03 | -0.03 ± 0.0028 | 0.0295 ± 0.023 | 0.0065 ± 0.03 | -0.0255 ± 0.021 | -0.0065 ± 0.022 | -0.007 ± 0.014 | 0.031 ± 0.064 | 0.0075 ± 0.019 | -0.018 ± 0.0014 | 0.0005 ± 0.0064 | 0.024 ± 0.037 | -0.0075 ± 0.0035 | -0.007 ± 0.028 | 0.014 ± 0.038 | -0.0035 ± 0.0035 | 0.018 ± 0.031 | 0.118 ± 0.015 | 0.28 ± 0.028 | 0.0185 ± 0.054 | 0.0025 ± 0.0035 | 0.0005 ± 0.0035 | 0.023 ± 0.027 | -0.0225 ± 0.0035 | 0.019 ± 0.03 | 0.0135 ± 0.043 | 0.0305 ± 0.05 | -0.0225 ± 0.021 | 0.016 ± 0.065 | 0.0125 ± 0.021
LPS:sTNF-alpha | -0.128 ± 0.22 | -0.044 ± 0.15 | -0.0005 ± 0.0078 | -0.0305 ± 0.032 | 0.0495 ± 0.028 | 0.0115 ± 0.016 | -0.012 ± 0.0071 | -0.005 ± 0.0028 | -0.004 ± 0.0085 | -0.004 ± 0.016 | -0.013 ± 0.02 | -0.0135 ± 0.0035 | -0.0095 ± 0.0035 | -0.0095 ± 0.022 | -0.003 ± 0.031 | -0.0135 ± 0.057 | 0.002 ± 0.0071 | 0.007 ± 0.0042 | -0.0245 ± 0.00071 | 0.001 ± 0.04 | 0.0095 ± 0.043 | 0.0095 ± 0.023 | 0.004 ± 0.031 | -0.003 ± 0.02 | -0.014 ± 0.016 | 0.039 ± 0.088 | 0.045 ± 0.017 | -0.014 ± 0.024 | -0.0135 ± 0.00071 | 0.028 ± 0.1
BF4T:MMP-9 | 0.0285 ± 0.037 | -0.016 ± 0.0085 | -0.012 ± 0.016 | 0.0135 ± 0.08 | 0.002 ± 0.075 | -0.007 ± 0.025 | -0.03 ± 0.0071 | 0.0065 ± 0.057 | 0.0005 ± 0.026 | -0.011 ± 0.0099 | 0.013 ± 0.054 | 0.0135 ± 0.063 | 0.013 ± 0.051 | -0.006 ± 0.055 | -0.001 ± 0.047 | 0.0175 ± 0.06 | -0.0015 ± 0.043 | -0.006 ± 0.025 | -0.113 ± 0.018 | -0.0285 ± 0.026 | -0.018 ± 0.028 | -0.0245 ± 0.036 | -0.008 ± 0.038 | -0.014 ± 0.034 | 0.0005 ± 0.033 | 0.0095 ± 0.029 | 0.026 ± 0.037 | -0.0105 ± 0.0092 | 0.008 ± 0.024 | 0.0195 ± 0.028
lMphg:CD106/VCAM-1 | -0.03 ± 0.017 | -0.0285 ± 0.049 | -0.0135 ± 0.005 | -0.004 ± 0.038 | -0.011 ± 0.0028 | -0.0115 ± 0.019 | 0.006 ± 0.0099 | -0.0245 ± 0.028 | -0.0105 ± 0.016 | -0.0015 ± 0.018 | -0.021 ± 0.025 | -0.01 ± 0.034 | 0 ± 0.013 | 0.006 ± 0.0014 | -0.003 ± 0.017 | 0.0015 ± 0.022 | 0.0115 ± 0.033 | 0.006 ± 0.014 | 0.0365 ± 0.0021 | 0.0085 ± 0.0035 | 0.003 ± 0.0028 | 0.0125 ± 0.016 | 0.003 ± 0.014 | -0.0085 ± 0.0021 | -0.0125 ± 0.029 | 0.011 ± 0.0057 | -0.003 ± 0.0071 | -0.018 ± 0.0042 | -0.0245 ± 0.037 | -0.0035 ± 0.011
